Data taken from publication PMC12040169 (PLOS Biology, 2025).
The other results are listed elsewhere or left out.

tested on: T1, CTL2-GFP (C. trachomatis L2/434/Bu, GFP-expressing); parameters: species or system HeLa; Intracellular C. trachomatis growth in HeLa cells, bulk GFP fluorescence relative to DMSO; conditions: bulk GFP, single well; 28.5 h, 10 µM; inhibitor
T1 construct: L2/434/Bu, GFP-expressing

In order of rising “% of control remaining” value:
1. Nc1cc(Cl)nc(SCC2CCCCC2)n1 [CBK007970]  78.5075%
2. Cc1nccnc1N1CCC2(CCCN(CC3CCC3)C2=O)C1 (centres unmarked) [CBK306806]  90.8903%
3. CC(C)(C)c1ccc(-c2ccc3ccc(N)nc3n2)cc1 [CBK061872]  92.0488%
4. COCCNc1cc(-c2ccc(SC)cc2)ncn1 [CBK090795]  97.3067%
5. Cn1nc(C2CCN(C(=O)Cc3ccsc3)CC2)c2cccnc21 [CBK284986]  99.2912%
6. CCN(CC)C(=O)c1ccsc1NS(=O)(=O)c1ccc(Br)cc1 [CBK042318]  100%
7. CC1(C)CC(=O)C(C(=S)Nc2ccc(F)cc2)=C(NCc2ccc3c(c2)OCO3)C1 [CBK264779]  100%
8. CCNS(=O)(=O)c1ccc2c(c1)N(Cc1nc(-c3ccco3)no1)CC2 [CBK306184]  101.353%
9. COCCN1C(=O)C2(CC(=O)N(Cc3ccccc3)C2=O)c2cc(OC)ccc21 (centres unmarked) [CBK075177]  101.525%
10. O=C(c1[nH]c2ccccc2c1NS(=O)(=O)Cc1ccccc1)N1CCOCC1 [CBK050067]  101.586%
11. CC(C)C(=O)N1CC2(CCN(Cc3ccc(C(C)C)cc3)CC2)c2ccccc21 [CBK122702]  102.656%
12. CCC(CC(=O)NC1CCCOC1)c1c[nH]c2ccccc12 (centres unmarked) [CBK282521]  102.957%
13. OCCn1c(COc2cccc3cccnc23)nc2ccccc21 [CBK269942]  104.423%
14. CC(=O)Nc1cccc(NC(=O)CN(CCO)C2CCCCC2)c1 [CBK304239]  104.682%
15. O=C(O)Cn1cc(C(=O)COc2ccccc2)c2ccccc21 [CBK286708]  105.406%
16. Nc1cc(O)n(Cc2ccco2)c(=S)n1 [CBK006010]  106.995%
17. CN(C)CCCn1cccc1C=O [CBK261993G]  107.255%
18. O=S(=O)(NCCc1nc2ccccc2[nH]1)c1ccc(Cl)c(Cl)c1 [CBK264416]  107.36%
19. C=CCSc1nc2ccccc2c(=O)n1CCc1ccccc1 [CBK055285]  107.552%
20. Cc1nn(C)c(C)c1NC(=O)COc1ccc(C#N)cc1 [CBK306011]  108.178%
21. COc1ccc(OCC(=O)Nc2cc3oc4ccccc4c3cc2OC)cc1 [CBK262608]  109.829%
22. Cc1ccc(S(=O)(=O)NCC(=O)O)cc1[N+](=O)[O-] [CBK034459]  110.45%
23. O=C(Cc1ccsc1)N1CCN(C(=O)c2ccco2)CC1 [CBK144446]  110.825%
24. COc1ccccc1-c1nccnc1NCC(C)O (centres unmarked) [CBK037637]  110.911%
25. O=C(CSc1nccn(-c2ccc(F)cc2)c1=O)Nc1ccc(F)cc1 [CBK287768]  111.713%
26. FC(F)(F)c1ccnc(OCCCc2ccncc2)n1 [CBK115799]  111.713%
27. COCCNC(=O)c1cnc2ccc(OC)cc2c1O [CBK159999]  112.283%
28. CCOC(=O)c1ccc(NC(=O)Cc2c(C(=O)O)nnn2-c2cccc(C(F)(F)F)c2)cc1 [CBK296932]  114.477%
29. O=C(NCc1nc2ccccc2[nH]1)c1cc(Br)cnc1N1CCOCC1 [CBK076278]  116.345%
30. Cc1ccc(-c2cc(CC3(C(=O)NC4CC4)CCOCC3)on2)cc1 [CBK284946]  117.011%
31. O=C(O)CCNS(=O)(=O)c1cccc(F)c1 [CBK267264]  117.685%
32. CCCCCOc1ccc(NS(=O)(=O)c2cccc(C(=O)O)c2)cc1 [CBK299795]  117.704%
33. CN(C)CCCn1nc2n(c1=O)-c1ccccc1SC(c1ccccc1)C2 (centres unmarked) [CBK016063]  117.852%
34. Cn1ccnc1C(O)(c1ccccc1)c1nccn1C [CBK262084]  118.081%
35. c1c(CC2CCCCC2)nnn1[C@H]1CO[C@H]2[C@@H]1OC[C@@H]2NCC1CC1 [CBK289511]  118.394%
36. COc1cncc(-c2cc(Nc3ccc(O)cc3)ncn2)c1 [CBK090752]  118.574%
37. COc1ccc([C@@]23CC[C@@H](NC(=O)Nc4cc(C)nc(C)c4)C[C@@H]2N(C)CC3)cc1OC [CBK045876]  120.142%
38. Cc1cc(NC(=O)c2ccc3c(c2)OCO3)nc2c1c(=O)oc1ccccc12 [CBK291121]  120.461%
39. CCOc1ccc(NC(=O)N(Cc2ccccn2)CC2CCCO2)cc1 (centres unmarked) [CBK306847]  121.501%
40. CCN(CC1CCOC1)C(=O)c1cn2ccccc2n1 (centres unmarked) [CBK305653]  122.661%
41. COc1cc(NS(=O)(=O)c2ccccc2)c(Cl)cc1C(=O)O [CBK286564]  124.167%
42. Cc1cc(=O)[nH]c(C)c1C(=O)N1CCC(N2CCCC(CO)C2)CC1 (centres unmarked) [CBK307158]  125.098%
43. c1ccc(OCCN2CCCN(c3cc(OCC4COc5ccccc5O4)ncn3)CC2)cc1 (centres unmarked) [CBK083395T]  125.381%
44. O=C(Cc1ccccc1)Nc1ccc(Oc2ccc(C(=O)O)c(C(=O)O)c2)cc1 [CBK263611]  126.093%
45. CCN1C(=O)COC[C@@H]1[C@H](O)c1ccc(NC(=O)c2ccc(C#N)cc2)cc1 [CBK289689]  126.972%
46. CN(C)C(C(=O)NCC1(C)COC1)c1ccc(Cl)cc1 (centres unmarked) [CBK281753]  127.665%
47. O=C(C1CC2C=CC1C21CC1)N1CCC(Oc2cccnc2)CC1 (centres unmarked) [CBK281501]  127.92%
48. CC(=O)N1CC(C(=O)Nc2nc3c(C)cc(C)cc3s2)C1 [CBK281372]  128.521%
49. O=C(O)CCNc1ncnc2ccccc12 [CBK126920]  128.742%
50. Cc1[nH]c2ccccc2c1C(=O)CSc1nc(N)cc(=O)[nH]1 [CBK297511]  129.302%
51. CC1CCN(C(=O)CCn2c(C(F)F)cc3cccnc32)CC1 [CBK284982]  129.915%
52. O=C(NCc1ccc(C(=O)O)cc1)NC1CCCCC1 [CBK286980]  131.895%
53. Cc1cc(NC(=O)c2ccc(Br)cc2)nc2c1c(=O)oc1ccccc12 [CBK291262]  133.571%
54. O=C(NC(=S)Nc1ccc2oc(-c3ccncc3)nc2c1)c1cc(Br)ccc1Cl [CBK264343]  135.807%
55. CC(C)CNC(=O)N1CCNC(=O)C1 [CBK155864]  135.848%
56. Fc1ccc(C2NC(S)=NC3=C2N2CCC3CC2)cc1 (centres unmarked) [CBK288390]  135.909%
57. O=C1NCCNC(=O)C2(C/C=C/COc3ccccc31)CCCN(C(=O)c1cnco1)C2 (centres unmarked) [CBK291993]  136.451%
58. FC(F)(F)c1ccc(CN2CCC(Oc3nccnc3OCc3cccnc3)CC2)cc1 [CBK083160T]  138.699%
59. COc1ccc(NC(=O)N[C@H]2CO[C@H]3[C@@H]2OC[C@@H]3n2cc(-c3ccccc3)nn2)cc1 [CBK289506]  138.875%
60. O=C(O)CN1C(=O)C2(CC(=O)N(Cc3ccccc3)C2=O)c2cc(F)ccc21 (centres unmarked) [CBK076173]  140.376%
61. CN(Cc1ccc(Cl)c(F)c1)C(=O)c1cn[nH]c1C1CCCCN1 (centres unmarked) [CBK304742]  141.601%
62. COc1ccc(-c2c[nH]c3c(=S)[nH]cnc23)cc1 [CBK288462]  143.245%
63. Cc1cc(C)n(C2CCN(Cc3cnn(C4CCCCC4)c3)CC2)n1 [CBK281804]  146.957%
64. COc1ccc(-c2cc(-c3c(O)ccc4c(C)cc(=O)oc34)nc(N)n2)cc1OC [CBK074619]  147.008%
65. Cn1ccnc1Sc1cc(C(F)(F)F)ccn1 [CBK093798]  154.721%
66. Cc1cc(C(=O)O)ccc1-c1ccc(/C=C/c2[nH]c(=O)[nH]c(=O)c2[N+](=O)[O-])o1 [CBK266998]  157.399%
67. Cc1ccc(C)c(CC(=O)N(CCC(=O)O)C2CCOCC2)c1 [CBK305469]  158.451%
68. CC(C)c1ccc(OCC(=O)NNC(=O)c2ccco2)c(Br)c1 [CBK267224]  159.613%
69. c1cncc(CNc2nc(-c3cccs3)cn3ccnc23)c1 [CBK066687]  161.185%
70. O=S(=O)(c1ccc(Cl)cc1)N1CCN(S(=O)(=O)N2CCCCC2)CC1 [CBK267075]  163.117%
71. Cc1ccc(SCCC(=O)NC(CC(=O)O)C(=O)O)cc1 (centres unmarked) [CBK295174]  163.397%
72. CC(C)NS(=O)(=O)c1ccc(OCC(=O)Nc2ccc3c(c2)OCCO3)cc1 [CBK265915]  165.069%
73. CCOc1ccc(NC(=O)Cn2c3c(c(-c4ccccc4)cc2=O)CCCC3)cc1 [CBK294457]  165.213%
74. COc1ccc(CC(=O)N2CCC(C3OCc4cc(-c5ccc(C(=O)N(C)C)cc5)ccc4O3)CC2)cc1 (centres unmarked) [CBK149759]  165.363%
75. CN(C)c1cccc(-c2cc(Nc3ccc4c(c3)OCCO4)ncn2)c1 [CBK090808]  172.734%
76. COc1ccc(C2=NN(C(=O)CCCC(=O)O)C(c3ccc4nccnc4c3)C2)cc1OC (centres unmarked) [CBK297785]  173.478%
77. CC(CNC(=O)COc1cc(Cl)c(Cl)cc1Cl)CN(C)C (centres unmarked) [CBK266766]  175.378%
78. COc1ccccc1NC(=O)CSc1nc(O)c2c(C)cc(C)nc2n1 [CBK266095]  176.359%
79. Cc1cccc(CN2CCC(NC(=O)C3(C#N)CCCC3)CC2)c1 [CBK305781]  186.186%
80. COc1ccccc1-c1cnc(N)c(N2CCN(CCO)CC2)n1 [CBK063403]  202.626%
